Consider one substance from PMC5391209.

Chains of the proteins cited; added tags and fusions are not shown.
UniProt P42337: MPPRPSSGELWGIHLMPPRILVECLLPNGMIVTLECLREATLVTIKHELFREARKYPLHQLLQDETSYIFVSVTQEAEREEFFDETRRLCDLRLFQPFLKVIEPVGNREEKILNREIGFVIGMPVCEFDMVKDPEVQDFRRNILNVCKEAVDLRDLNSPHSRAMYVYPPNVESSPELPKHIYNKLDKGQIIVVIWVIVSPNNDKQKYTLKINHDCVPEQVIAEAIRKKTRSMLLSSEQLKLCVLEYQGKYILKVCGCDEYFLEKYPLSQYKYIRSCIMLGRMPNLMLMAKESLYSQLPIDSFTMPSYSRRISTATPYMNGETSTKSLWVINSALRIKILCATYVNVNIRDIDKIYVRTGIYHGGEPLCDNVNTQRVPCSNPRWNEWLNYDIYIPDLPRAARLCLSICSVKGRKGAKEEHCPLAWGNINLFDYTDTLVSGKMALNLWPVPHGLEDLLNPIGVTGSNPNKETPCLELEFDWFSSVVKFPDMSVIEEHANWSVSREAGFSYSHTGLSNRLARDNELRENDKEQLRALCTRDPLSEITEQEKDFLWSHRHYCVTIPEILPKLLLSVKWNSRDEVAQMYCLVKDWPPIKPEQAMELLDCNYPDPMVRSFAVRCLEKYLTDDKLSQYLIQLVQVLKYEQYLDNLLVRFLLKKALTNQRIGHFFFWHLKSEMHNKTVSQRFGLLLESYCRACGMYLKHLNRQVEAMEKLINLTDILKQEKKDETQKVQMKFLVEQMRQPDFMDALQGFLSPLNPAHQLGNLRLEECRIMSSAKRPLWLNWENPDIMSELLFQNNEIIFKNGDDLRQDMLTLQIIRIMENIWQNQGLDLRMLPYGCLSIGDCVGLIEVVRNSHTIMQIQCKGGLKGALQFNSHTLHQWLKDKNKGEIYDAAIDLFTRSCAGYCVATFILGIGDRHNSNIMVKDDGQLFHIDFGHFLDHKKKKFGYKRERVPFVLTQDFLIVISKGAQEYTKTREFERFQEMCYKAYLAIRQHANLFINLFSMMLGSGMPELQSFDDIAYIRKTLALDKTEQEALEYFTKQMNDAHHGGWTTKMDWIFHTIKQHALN

This assay deals with T1, FLAG-tagged R-Ras2 4KR (human) (UniProt P62070).
T1 sequence: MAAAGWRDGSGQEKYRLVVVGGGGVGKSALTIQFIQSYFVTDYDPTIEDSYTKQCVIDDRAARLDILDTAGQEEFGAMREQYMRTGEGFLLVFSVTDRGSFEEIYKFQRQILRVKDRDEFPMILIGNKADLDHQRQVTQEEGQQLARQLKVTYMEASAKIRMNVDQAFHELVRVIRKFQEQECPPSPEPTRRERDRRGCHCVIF
As to the kind of experiment: co-IP; FLAG-tagged R-Ras2 WT or 4KR overexpressed in Sirt6 WT and KO MEFs, R-Ras2 immunoprecipitated, p110α examined by blot.

These are yes or no findings as the source states them, for the method shown. In cells and extracts the contact can be indirect. Some results given as binding are weak or reduced against the parent protein; the word gives no strength. Tags and fused reporters may be left off the sequences shown.

For “p110α, one isoform of the catalytic subunit of PI3K (from UniProt P42337 1-1068) (enzyme)”, the binding entry is on record as “binds”.
